# Test: general procedure: Fmoc solid-phase peptide synthesis; Rink AM Resin (loading 0.6 mmol/g); carbodiimide reagents (DCC preferred); EDCI/HOBt for solution-phase examples
substance,measurement,setting,value
(β-Admantan-1-yl)-Ala-D-Arg-Phe-Lys-NH2,final HPLC purity,"late stage modification step, 210 nm",95.4%
Phe-D-Arg-(2-Methyl)-Phe-Lys-NH2,final HPLC purity,"whole synthesis, HPLC, scale of the general procedure 10 g of resin",99.0%
"tert-butyl ((9S,12S,15R,18S)-9-carbamoyl-15-(3-guanidinopropyl)-3,11,14,17-tetraoxo-1,19-diphenyl-12-((tetrahydro-2H-pyran-4-yl)methyl)-2-oxa-4,10,13,16-tetraazanonadecan-18-yl)carbamate",final purity (method not given),"coupling step, HPLC",85%
